In paper PMC1523230, “Structural Organization of the 19S Proteasome Lid: Insights from MS of Intact Complexes” (PLoS Biology, 2006):
These are yes or no findings as the source states them, for the method shown. Some binding calls cover weakened binding; strength is not graded here.

T1: Rpn11^H12 (S. cerevisiae), P43588
T1 chain: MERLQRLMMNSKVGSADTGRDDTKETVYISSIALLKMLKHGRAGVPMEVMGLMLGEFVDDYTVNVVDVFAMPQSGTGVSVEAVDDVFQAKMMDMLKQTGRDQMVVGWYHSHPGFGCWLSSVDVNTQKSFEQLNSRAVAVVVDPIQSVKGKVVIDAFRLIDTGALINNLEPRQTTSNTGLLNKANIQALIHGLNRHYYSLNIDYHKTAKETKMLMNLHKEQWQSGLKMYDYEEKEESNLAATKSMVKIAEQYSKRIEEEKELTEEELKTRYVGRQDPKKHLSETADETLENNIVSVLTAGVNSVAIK

B1: Rpn6, Q12377 1-434 (protein)
chain: MSLPGSKLEEARRLVNEKQYNEAEQVYLSLLDKDSSQSSAAAGASVDDKRRNEQETSILELGQLYVTMGAKDKLREFIPHSTEYMMQFAKSKTVKVLKTLIEKFEQVPDSLDDQIFVCEKSIEFAKREKRVFLKHSLSIKLATLHYQKKQYKDSLALINDLLREFKKLDDKPSLVDVHLLESKVYHKLRNLAKSKASLTAARTAANSIYCPTQTVAELDLMSGILHCEDKDYKTAFSYFFESFESYHNLTTHNSYEKACQVLKYMLLSKIMLNLIDDVKNILNAKYTKETYQSRGIDAMKAVAEAYNNRSLLDFNTALKQYEKELMGDELTRSHFNALYDTLLESNLCKIIEPFECVEISHISKIIGLDTQQVEGKLSQMILDKIFYGVLDQGNGWLYVYETPNQDATYDSALELVGQLNKVVDQLFEKASVLY
B2: Rpn9, Q04062 1-393 (protein)
chain: MFNNHEIDTILSTLRMEADPSLHPLFEQFEKFYEEKLWFQLSESLTKFFDDAKSTPLRLRLYDNFVSKFYDKINQLSVVKYLLASLKDSKDFDESLKYLDDLKAQFQELDSKKQRNNGSKDHGDGILLIDSEIARTYLLKNDLVKARDLLDDLEKTLDKKDSIPLRITNSFYSTNSQYFKFKNDFNSFYYTSLLYLSTLEPSTSITLAERQQLAYDLSISALLGDKIYNFGELLHHPIMETIVNDSNYDWLFQLLNALTVGDFDKFDSLIKVQISKIPILAQHESFLRQKICLMTLIETVFVKNIRMLSFEDISKATHLPKDNVEHLVMRAISLGLLKGSIDQVNELVTISWVQPRIISGDQITKMKDRLVEWNDQVEKLGKKMEARGQSIWV
B3: Rpn12, P32496 1-274 (protein)
chain: MPSLAELTKSLSIAFENGDYAACEKLLPPIKIELIKNNLLIPDLSIQNDIYLNDLMITKRILEVGALASIQTFNFDSFENYFNQLKPYYFSNNHKLSESDKKSKLISLYLLNLLSQNNTTKFHSELQYLDKHIKNLEDDSLLSYPIKLDRWLMEGSYQKAWDLLQSGSQNISEFDSFTDILKSAIRDEIAKNTELSYDFLPLSNIKALLFFNNEKETEKFALERNWPIVNSKVYFNNQSKEKADYEDEMMHEEDQKTNIIEKAMDYAISIENIV

Target: T1, Rpn11^H12 (S. cerevisiae), P43588
Assay: native MS; intact endogenous 19S lid purified through Rpn11^H12, buffer exchanged into 1 M ammonium acetate, nano-electrospray on a high-mass Q-TOF; MS/MS of the 47+ charge state at 100 and 120 V; both purified
Details: remark: other sources report otherwise

binding, binds:
B1, B2, B3
